Source: the supplement of paper PMC7661543
Differences between knockout arms are mostly noise.

System: SKBR3
Assay: relative cell number vs DMSO control (72 h) (% of DMSO); higher = less growth inhibition (more cells)
Experimental: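 QMAP-Seq: a pool of 5 breast cancer cell lines (ZR-75-1, SKBR3, HCC-38, MDA-MB-231, BT-20), each carrying 12 doxycycline-inducible Cas9 sgRNA perturbations (11 knockouts plus non-targeting sgNT), was treated with compounds for 72 h at four 10-fold doses (10 nM-10 uM or 1 nM-1 uM range). Barcodes were amplified and sequenced, and cell number was interpolated from 293T spike-in standard curves. The result is expressed as % of the median of DMSO wells. Two biological replicates.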

CCn1c(=O)c2c(nc(/C=C/c3ccc(OC)c(OC)c3)n2C)n(CC)c1=O [Istradefylline]
Settings | relative cell number
sgRNA knockout: sgATF3, 10 nM | 103
sgRNA knockout: sgATF3, 100 nM | 115
sgRNA knockout: sgATF3, 1000 nM | 81.4
sgRNA knockout: sgATF3, 10000 nM | 123
sgRNA knockout: sgATF4, 10 nM | 85.6
sgRNA knockout: sgATF4, 100 nM | 82.7
sgRNA knockout: sgATF4, 1000 nM | 83.7
sgRNA knockout: sgATF4, 10000 nM | 102
sgRNA knockout: sgATF6, 10 nM | 79
sgRNA knockout: sgATF6, 100 nM | 81.7
sgRNA knockout: sgATF6, 1000 nM | 83.7
sgRNA knockout: sgATF6, 10000 nM | 97.1
sgRNA knockout: sgATG7, 10 nM | 82.4
sgRNA knockout: sgATG7, 100 nM | 124
sgRNA knockout: sgATG7, 1000 nM | 78.8
sgRNA knockout: sgATG7, 10000 nM | 117
sgRNA knockout: sgERN1, 10 nM | 82.8
sgRNA knockout: sgERN1, 100 nM | 109
sgRNA knockout: sgERN1, 1000 nM | 81
sgRNA knockout: sgERN1, 10000 nM | 107
sgRNA knockout: sgHSF1, 10 nM | 80.7
sgRNA knockout: sgHSF1, 100 nM | 92.7
sgRNA knockout: sgHSF1, 1000 nM | 95.6
sgRNA knockout: sgHSF1, 10000 nM | 89.6
sgRNA knockout: sgHSF2, 10 nM | 93.7
sgRNA knockout: sgHSF2, 100 nM | 92.6
sgRNA knockout: sgHSF2, 1000 nM | 92.6
sgRNA knockout: sgHSF2, 10000 nM | 79.8
sgRNA knockout: sgKEAP1, 10 nM | 89
sgRNA knockout: sgKEAP1, 100 nM | 83.5
sgRNA knockout: sgKEAP1, 1000 nM | 70.4
sgRNA knockout: sgKEAP1, 10000 nM | 84.3
sgRNA knockout: sgNFE2L2, 10 nM | 88
sgRNA knockout: sgNFE2L2, 100 nM | 80.4
sgRNA knockout: sgNFE2L2, 1000 nM | 102
sgRNA knockout: sgNFE2L2, 10000 nM | 96.8
sgRNA knockout: sgSLC35F2, 10 nM | 87.6
sgRNA knockout: sgSLC35F2, 100 nM | 70.2
sgRNA knockout: sgSLC35F2, 1000 nM | 91.1
sgRNA knockout: sgSLC35F2, 10000 nM | 91.4
sgRNA knockout: sgXBP1, 10 nM | 91
sgRNA knockout: sgXBP1, 100 nM | 119
sgRNA knockout: sgXBP1, 1000 nM | 89.2
sgRNA knockout: sgXBP1, 10000 nM | 130

CN(Cc1cnc2nc(N)nc(N)c2n1)c1ccc(C(=O)N[C@@H](CCC(=O)O)C(=O)O)cc1 [Methotrexate]
Settings | relative cell number
sgRNA knockout: sgATF3, 10 nM | 101
sgRNA knockout: sgATF3, 100 nM | 48.2
sgRNA knockout: sgATF3, 1000 nM | 22.8
sgRNA knockout: sgATF3, 10000 nM | 15
sgRNA knockout: sgATF4, 10 nM | 98.2
sgRNA knockout: sgATF4, 100 nM | 47.8
sgRNA knockout: sgATF4, 1000 nM | 28.52
sgRNA knockout: sgATF4, 10000 nM | 20.35
sgRNA knockout: sgATF6, 10 nM | 90.1
sgRNA knockout: sgATF6, 100 nM | 47.2
sgRNA knockout: sgATF6, 1000 nM | 23.4
sgRNA knockout: sgATF6, 10000 nM | 22.3
sgRNA knockout: sgATG7, 10 nM | 98.7
sgRNA knockout: sgATG7, 100 nM | 37.6
sgRNA knockout: sgATG7, 1000 nM | 17.98
sgRNA knockout: sgATG7, 10000 nM | 18.1
sgRNA knockout: sgERN1, 10 nM | 81.3
sgRNA knockout: sgERN1, 100 nM | 38.07
sgRNA knockout: sgERN1, 1000 nM | 21.8
sgRNA knockout: sgERN1, 10000 nM | 19.3
sgRNA knockout: sgHSF1, 10 nM | 74.3
sgRNA knockout: sgHSF1, 100 nM | 44.32
sgRNA knockout: sgHSF1, 1000 nM | 27.5
sgRNA knockout: sgHSF1, 10000 nM | 14.5
sgRNA knockout: sgHSF2, 10 nM | 94.9
sgRNA knockout: sgHSF2, 100 nM | 46.7
sgRNA knockout: sgHSF2, 1000 nM | 24
sgRNA knockout: sgHSF2, 10000 nM | 18
sgRNA knockout: sgKEAP1, 10 nM | 76.7
sgRNA knockout: sgKEAP1, 100 nM | 49.2
sgRNA knockout: sgKEAP1, 1000 nM | 21.4
sgRNA knockout: sgKEAP1, 10000 nM | 15.4
sgRNA knockout: sgNFE2L2, 10 nM | 92.4
sgRNA knockout: sgNFE2L2, 100 nM | 37.76
sgRNA knockout: sgNFE2L2, 1000 nM | 23.7
sgRNA knockout: sgNFE2L2, 10000 nM | 18.6
sgRNA knockout: sgSLC35F2, 10 nM | 88.6
sgRNA knockout: sgSLC35F2, 100 nM | 39.3
sgRNA knockout: sgSLC35F2, 1000 nM | 14.2
sgRNA knockout: sgSLC35F2, 10000 nM | 17.6
sgRNA knockout: sgXBP1, 10 nM | 108
sgRNA knockout: sgXBP1, 100 nM | 49.6
sgRNA knockout: sgXBP1, 1000 nM | 21.47
sgRNA knockout: sgXBP1, 10000 nM | 21.2

CCC(C)SSc1ncc[nH]1 (configuration not stated) [PX12]
Settings | relative cell number
sgRNA knockout: sgATF3, 10 nM | 111
sgRNA knockout: sgATF3, 100 nM | 111
sgRNA knockout: sgATF3, 1000 nM | 108
sgRNA knockout: sgATF3, 10000 nM | 53.2
sgRNA knockout: sgATF4, 10 nM | 106
sgRNA knockout: sgATF4, 100 nM | 114
sgRNA knockout: sgATF4, 1000 nM | 84
sgRNA knockout: sgATF4, 10000 nM | 52.4
sgRNA knockout: sgATF6, 10 nM | 110
sgRNA knockout: sgATF6, 100 nM | 103.6
sgRNA knockout: sgATF6, 1000 nM | 91.9
sgRNA knockout: sgATF6, 10000 nM | 46.6
sgRNA knockout: sgATG7, 10 nM | 99.4
sgRNA knockout: sgATG7, 100 nM | 130
sgRNA knockout: sgATG7, 1000 nM | 108
sgRNA knockout: sgATG7, 10000 nM | 55.6
sgRNA knockout: sgERN1, 10 nM | 86.4
sgRNA knockout: sgERN1, 100 nM | 96
sgRNA knockout: sgERN1, 1000 nM | 90.02
sgRNA knockout: sgERN1, 10000 nM | 57.4
sgRNA knockout: sgHSF1, 10 nM | 101
sgRNA knockout: sgHSF1, 100 nM | 91.3
sgRNA knockout: sgHSF1, 1000 nM | 88.8
sgRNA knockout: sgHSF1, 10000 nM | 49.1
sgRNA knockout: sgHSF2, 10 nM | 107
sgRNA knockout: sgHSF2, 100 nM | 109
sgRNA knockout: sgHSF2, 1000 nM | 92.7
sgRNA knockout: sgHSF2, 10000 nM | 45.9
sgRNA knockout: sgKEAP1, 10 nM | 104
sgRNA knockout: sgKEAP1, 100 nM | 102
sgRNA knockout: sgKEAP1, 1000 nM | 83.3
sgRNA knockout: sgKEAP1, 10000 nM | 53.2
sgRNA knockout: sgNFE2L2, 10 nM | 98.9
sgRNA knockout: sgNFE2L2, 100 nM | 86
sgRNA knockout: sgNFE2L2, 1000 nM | 92.8
sgRNA knockout: sgNFE2L2, 10000 nM | 50.1
sgRNA knockout: sgSLC35F2, 10 nM | 106
sgRNA knockout: sgSLC35F2, 100 nM | 125
sgRNA knockout: sgSLC35F2, 1000 nM | 101
sgRNA knockout: sgSLC35F2, 10000 nM | 43.6
sgRNA knockout: sgXBP1, 10 nM | 103
sgRNA knockout: sgXBP1, 100 nM | 113
sgRNA knockout: sgXBP1, 1000 nM | 96.8
sgRNA knockout: sgXBP1, 10000 nM | 46.6
